PubChem BioAssay AID504784, Drosophila RNAi Screening Center, 2011
The deposit covers about 17,000 reagents; this is an unselected part of those that have a named target and a result. 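Each column is one replicate's B-score; the combined score over replicates was not deposited, so single values may mislead.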 Names joined by + are all predicted targets of the reagent. No sequences are given here.

- Purpose: 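Genome-wide knock-down for genes giving too much or too little stored lipid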 (primary screen)
- Cells: Drosophila Kc167 embryonic cells
- Knock-down reagent: long dsRNA against Drosophila genes, about 250 ng dsRNA per well
- Duration: 4 days
- Treatment: cells fed 400 µM oleic acid bound to BSA
- Measurement: 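Microscope images give a droplet-to-nucleus area ratio, taken as log and converted to a screen-wide B-score; higher values mean greater lipid storage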
- Direction: droplet/nuclear area B-score: higher = more stored lipid (overstorage)

no.	Gene	DRSC id	droplet/nuclear area B-score, replicate 1	droplet/nuclear area B-score, replicate 2	droplet/nuclear area B-score, replicate 3
1	foxo (forkhead box, sub-group O)	DRSC13017	-0.31	0.0914	
2	foxo (forkhead box, sub-group O)	DRSC15463	0.702	-0.522	
3	wntD (wnt inhibitor of Dorsal)	DRSC16423	-0.756	-1.91	
4	CG31468	DRSC13637	-1.16	-0.829	
5	PolQ (DNA polymerase theta)	DRSC17006	0.239	2.72	
6	CG12106	DRSC17805	0.251	-0.553	-1.85
7	CG7332	DRSC20038	1.56	-0.0653	
8	mRpS16 (mitochondrial ribosomal protein S16)	DRSC07152	-1.28	0.91	
9	Sas-6 (Spindle assembly abnormal 6)	DRSC15061	-0.942	-1.1	
10	CG13108	DRSC02206	-0.124	0.49	
11	CG18179	DRSC10303	0.307	0.856	
12	CG10927	DRSC06014	0.0266	0.756	
13	CG31823	DRSC01887	0.327	1.57	
14	CG4377	DRSC04467	0.609	-0.274	
15	CG15483	DRSC02493		0.132	
16	Cep97 (Centrosomal protein 97kDa)	DRSC00637	0.0131	-0.308	
17	haf (hattifattener)	DRSC00381	1.19	0.43	
18	lncRNA:noe (long non-coding RNA:noe)	DRSC22747	-0.361	-1.08	
19	Ttc19 (Tetratricopeptide repeat domain 19)	DRSC02474	0.111	1.65	
20	kel (kelch)	DRSC03554	-2.85	-3.95	
21	ND-B14.5AL (NADH dehydrogenase (ubiquinone) B14.5 A subunit-like)	DRSC11795	-0.677	0.0726	
22	Acsx4 (Acyl-CoA synthetase X4)	DRSC14311	3.41	2.25	
23	poe (purity of essence)	DRSC03593	0.775	2.07	
24	CG13806	DRSC08341	-0.698	0.0967	
25	Esyt2 (Extended synaptotagmin-like protein 2)	DRSC16082	1.38	0.815	
26	CG17801	DRSC15273	-0.224	-1	
27	CG32855	DRSC13131	-0.0395	0.179	
28	CG42329	DRSC00373	0.0188	-0.0415	
29	CG42329	DRSC00682	0.679	-0.411	
30	CG13272	DRSC02249	-0.325	0.0831	
31	CG13272	DRSC22910	-0.299	0.000844	
32	Mocs2A + Mocs2B	DRSC13697	-0.256	-1.14	
33	Mocs2A + Mocs2B	DRSC14219	1.46	-1.53	
34	CG42541	DRSC17973	0.0405	1.22	
35	CG42541	DRSC18119	0.249	3.91	
36	CG42541	DRSC18120	-0.412	-0.176	
37	CG5510	DRSC15823	-0.234	0.0309	
38	CG14135	DRSC10140	0.484	0.519	
39	RpL19 (Ribosomal protein L19)	DRSC04649	5.23	2.78	
40	CG32544	DRSC20033	0.0293	1.95	
41	CG8765	DRSC11041	0.604	-0.161	
42	CG8765	DRSC23043	-0.174	0.59	
43	CG15152	DRSC02453	0.742	-1.55	
44	escl	DRSC02828	-1.97	0.0643	
45	scpr-B (SCP-containing protein B)	DRSC15200	-2.91	6.35	
46	CG3557	DRSC00614	0.325	1.86	
47	CG32299 + CG32298	DRSC07980	0.384	2.39	
48	CG32299 + CG32298	DRSC22354	0.491	-0.643	
49	laza (lazaro)	DRSC11661	0.186	-1.25	0.0913
50	laza (lazaro)	DRSC23330	1.04	1.2	
51	CG5327	DRSC06930	-1.92	-0.586	
52	CG10194	DRSC02025	0.666	1.15	
53	Agpat3 (1-Acylglycerol-3-phosphate O-acyltransferase 3)	DRSC10445	0.082	0.16	-2.25
54	CG31093	DRSC15689	0.537	-0.583	
55	erm (earmuff)	DRSC00700	0.465	0.337	
56	CG3430	DRSC02713	-0.745	0.924	
57	CG3397	DRSC15487	-1.1	-6.83	
58	l(3)S110416 (retired record)	DRSC17094	-0.155	-3.2	
59	Or47a (Odorant receptor 47a)	DRSC07491	-0.682	0.583	
60	CG12301	DRSC09875	0.344	0.892	2.67
61	CG15140	DRSC02440	0.0763	-0.82	
62	CG14969	DRSC08428	-1.77	-0.561	
63	Teh1 (tipE homolog 1)	DRSC14544	0.726	1.16	
64	mthl11 (methuselah-like 11)	DRSC12779	0.506	-0.0762	
65	GCC88 (GRIP and coiled-coil domain containing 88 kDa)	DRSC14264	-0.407	-0.876	
66	mGluR (metabotropic Glutamate Receptor)	DRSC17215	-2.65	1.01	
67	Arpc3A (Actin-related protein 2/3 complex, subunit 3A)	DRSC15596	0.0224	-0.755	
68	oys (oysgedart)	DRSC05203	-0.423	-0.818	
69	oys (oysgedart)	DRSC06751	0.318	0.18	
70	Tsp42Ed (Tetraspanin 42Ed)	DRSC05940	-0.37	-2.33	
71	CG12419 (retired record)	DRSC14513	-2.79	-0.971	
72	CG31637	DRSC02270	1.08	0	
73	CG31637	DRSC03263	-0.0702	0.848	
74	CG6974	DRSC16160	-0.0211	0.553	
75	CG44325	DRSC18423	-1.57	0.538	
76	CG14573	DRSC11734	0.515	0.953	
77	Gyc89Da (Guanylyl cyclase at 89Da)	DRSC15008	-0.0109	0.814	
78	ppk30 (pickpocket 30)	DRSC15302	0.281	0.148	
79	bsh (brain-specific homeobox)	DRSC03498	-1.73	-1.04	
80	Tsp42Eo (Tetraspanin 42Eo)	DRSC06184	0.277	1.25	
81	CG5376	DRSC15782	0.199	0.121	
82	CG15414	DRSC00429	-0.667	0.237	
83	CG15414	DRSC22353	0.00151	0.61	

9 entries from above, set out differently:
foxo (forkhead box, sub-group O) [DRSC13017] | droplet/nuclear area B-score, replicate 1 = -0.31; droplet/nuclear area B-score, replicate 2 = 0.0914
foxo (forkhead box, sub-group O) [DRSC15463] | droplet/nuclear area B-score, replicate 1 = 0.702; droplet/nuclear area B-score, replicate 2 = -0.522
wntD (wnt inhibitor of Dorsal) [DRSC16423] | droplet/nuclear area B-score, replicate 1 = -0.756; droplet/nuclear area B-score, replicate 2 = -1.91
CG31468 [DRSC13637] | droplet/nuclear area B-score, replicate 1 = -1.16; droplet/nuclear area B-score, replicate 2 = -0.829
PolQ (DNA polymerase theta) [DRSC17006] | droplet/nuclear area B-score, replicate 1 = 0.239; droplet/nuclear area B-score, replicate 2 = 2.72
CG12106 [DRSC17805] | droplet/nuclear area B-score, replicate 1 = 0.251; droplet/nuclear area B-score, replicate 2 = -0.553; droplet/nuclear area B-score, replicate 3 = -1.85
CG7332 [DRSC20038] | droplet/nuclear area B-score, replicate 1 = 1.56; droplet/nuclear area B-score, replicate 2 = -0.0653
mRpS16 (mitochondrial ribosomal protein S16) [DRSC07152] | droplet/nuclear area B-score, replicate 1 = -1.28; droplet/nuclear area B-score, replicate 2 = 0.91
Sas-6 (Spindle assembly abnormal 6) [DRSC15061] | droplet/nuclear area B-score, replicate 1 = -0.942; droplet/nuclear area B-score, replicate 2 = -1.1
